# Measurements reported in PubChem BioAssay AID652054 (National Center for Advancing Translational Sciences (NCATS), 2013).
# The chains behind the UniProt entries cited, without tags or fusion partners.
# UniProt P35462, whole entry, looked up: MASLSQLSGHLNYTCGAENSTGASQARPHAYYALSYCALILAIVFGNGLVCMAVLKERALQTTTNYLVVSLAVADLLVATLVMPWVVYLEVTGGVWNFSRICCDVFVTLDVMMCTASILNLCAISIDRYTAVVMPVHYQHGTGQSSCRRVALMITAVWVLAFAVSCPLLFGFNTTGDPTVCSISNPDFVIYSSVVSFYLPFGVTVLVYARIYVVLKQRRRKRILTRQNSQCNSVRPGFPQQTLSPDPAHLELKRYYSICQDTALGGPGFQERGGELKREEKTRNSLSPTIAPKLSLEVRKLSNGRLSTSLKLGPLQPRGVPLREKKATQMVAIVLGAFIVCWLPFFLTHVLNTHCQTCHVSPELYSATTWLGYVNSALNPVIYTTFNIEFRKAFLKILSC
# Among all 360,000 compounds or so, about 9,100 (2.5%) were called active. This list was built around the results that the source calls inconclusive (neither active nor inactive); the mix of calls is not that of the screen. Cut-off read from the data, not from the text of the source: active = max response below about -50%; inconclusive = no clear call, values can overlap the other calls; inactive = above that.
# Target: D(3) dopamine receptor (Homo sapiens) (UniProt P35462)
# Test: qHTS of D3 Dopamine Receptor Antagonist: qHTS
# Conditions: D3R cells, DiscoveRx beta-arrestin luminescence, antagonist mode; hits give low values
# Procedure, shortened: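 Cells plated overnight at 1500 cells/well, then exposed to library compounds with dopamine controls for 90 minutes at 37 degrees C. DiscoveRx reagent added for 30–60 minutes at room temperature; luminescence read, quantitative HTS format.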
# % is set by controls: 0 for no effect and ±100 for the full control effect.
row,SMILES,"max response, negative = inhibition"
1,CCc1nc2ccc(C(=O)NCCCn3ccnc3)cn2c1N(C)C(=O)COc1ccccc1,inactive: 0%
2,CCn1c(NN)nc2sc3c(c2c1=O)CCC3,inconclusive: -34.1%
3,O=C(NNc1ccc([N+](=O)[O-])cc1)c1ccccc1Cl,inconclusive: -30.1%
4,COc1cc(OC)cc(-c2c(Sc3ccccc3)c3cc(-c4ccc(SC)cc4)ccc3n2C)c1,inactive: -7%
5,CN1CCN(c2oc(-c3ccccc3Cl)nc2S(=O)(=O)c2ccccc2)CC1,active: -78.9%
6,Cc1ccccc1C(=O)NC1CCN(CC(=O)NC2CCCCC2)CC1,inconclusive: -30%
7,Cc1cccc(C)c1NC(=O)NCCCN1CCN(c2ccccc2)CC1,inconclusive: -35.7%
8,CCOC(=O)COc1cc([N+](=O)[O-])cc2cccnc12,inconclusive: -35.2%
9,CCN1CCN(C(=O)c2oc(=O)c3ccccc3c2-c2ccc(C)cc2)CC1,inconclusive: -47.4%
10,CC(=O)C[C@@H](O)CC(=O)[C@@H]1OC(=O)CCCCCCCCc2ccccc21,inactive: 27.7%
11,COc1ccccc1N1CCN(CCCNC(=O)Nc2ccccc2C)CC1,inactive: -27.1%
12,Cc1cc([N+](=O)[O-])ccc1-c1ccc(C2Nc3ccccc3C(=O)N2O)o1 (configuration not stated),inactive: 39.8%
13,CCN(CC(=O)NCc1cccs1)C(=O)/C=C/c1cc(OC)c(OC)c(OC)c1,inactive: -8.28%
14,Cc1cc(C(=O)COC(=O)c2n[nH]c3ccccc23)c(C)n1CC1CCCO1 (configuration not stated),inconclusive: -32%
15,C=C(C)Cn1c(CCn2c3ccccc3c3ccccc32)n[nH]c1=S,inconclusive: -38.7%
16,Cc1cccc(OCc2n[nH]c(=S)o2)c1,inconclusive: -31.7%
17,O=C(CC1C[C@H](C(=O)N2CCCCC2)[C@@]2(CCc3ccccc3)c3[nH]c4ccccc4c3CCN2C1=O)NCCCn1ccnc1 (some centres not stated),inconclusive: -36.4%
18,Cc1ccccc1-n1ncc(C(C)NS(=O)(=O)c2sccc2C)c1C (configuration not stated),inactive: -11.5%
19,CCSc1nnc(NC(=O)c2nc(S(=O)(=O)Cc3ccc(F)cc3)ncc2Cl)s1,active: -67.6%

# 14 consecutive entries out of the list so far, for reference:
row,SMILES,"max response, negative = inhibition"
3,O=C(NNc1ccc([N+](=O)[O-])cc1)c1ccccc1Cl,inconclusive: -30.1%
4,COc1cc(OC)cc(-c2c(Sc3ccccc3)c3cc(-c4ccc(SC)cc4)ccc3n2C)c1,inactive: -7%
5,CN1CCN(c2oc(-c3ccccc3Cl)nc2S(=O)(=O)c2ccccc2)CC1,active: -78.9%
6,Cc1ccccc1C(=O)NC1CCN(CC(=O)NC2CCCCC2)CC1,inconclusive: -30%
7,Cc1cccc(C)c1NC(=O)NCCCN1CCN(c2ccccc2)CC1,inconclusive: -35.7%
8,CCOC(=O)COc1cc([N+](=O)[O-])cc2cccnc12,inconclusive: -35.2%
9,CCN1CCN(C(=O)c2oc(=O)c3ccccc3c2-c2ccc(C)cc2)CC1,inconclusive: -47.4%
10,CC(=O)C[C@@H](O)CC(=O)[C@@H]1OC(=O)CCCCCCCCc2ccccc21,inactive: 27.7%
11,COc1ccccc1N1CCN(CCCNC(=O)Nc2ccccc2C)CC1,inactive: -27.1%
12,Cc1cc([N+](=O)[O-])ccc1-c1ccc(C2Nc3ccccc3C(=O)N2O)o1 (configuration not stated),inactive: 39.8%
13,CCN(CC(=O)NCc1cccs1)C(=O)/C=C/c1cc(OC)c(OC)c(OC)c1,inactive: -8.28%
14,Cc1cc(C(=O)COC(=O)c2n[nH]c3ccccc23)c(C)n1CC1CCCO1 (configuration not stated),inconclusive: -32%
15,C=C(C)Cn1c(CCn2c3ccccc3c3ccccc32)n[nH]c1=S,inconclusive: -38.7%
16,Cc1cccc(OCc2n[nH]c(=S)o2)c1,inconclusive: -31.7%

# (list continues)

row,SMILES,"max response, negative = inhibition"
1,COc1ccc2sc(-c3ccccc3OC)c(-c3ccc(OCCN4CCCC4)cc3)c2c1,active: -83.2%
2,COc1cccc(-n2c(C)cc(/C=C3\C(=N)N4N=C(CC(=O)N5CCOCC5)SC4=NC3=O)c2C)c1,inconclusive: -37.6%
3,OC(c1cccc(Cl)c1)c1ncc(-c2ccc(Oc3ccccc3)cc2)[nH]1 (configuration not stated),inactive: 24.1%
4,COc1ccc(C(=O)CC(=O)C(=O)Nc2cccc([N+](=O)[O-])c2C)cc1,inactive: -11.2%
5,CCCC(=O)NCCCc1nc2ccccc2n1C(C)C,inactive: -13.5%
6,O=C(Cc1ccccc1)Nc1cccc(-c2nc3ncccc3o2)c1,inactive: -13.9%
7,CN1CCN(C(=O)CNc2ccc(C(F)(F)F)cc2[N+](=O)[O-])CC1,inactive: -28.4%
8,N#Cc1c([N+](=O)[O-])cc([N+](=O)[O-])cc1S(=O)(=O)Cc1ccccc1,active: -102%
9,Cc1cc(C)cc(Cn2cc(CN3CC(N4CCSCC4)CS3(=O)=O)nn2)c1 (configuration not stated),active: -54.5%
10,Cc1onc(-c2ccccc2)c1C(=O)Nc1sc2c(c1C(N)=O)CCC2,inconclusive: -36.6%
11,Cc1ccc(C(C)NC(=O)c2ccco2)cc1C (configuration not stated),inconclusive: -39.4%
12,Cc1ccc(Cc2c(-c3ccccc3)nc3c(C)cc(Br)cn23)cc1,inactive: 18.1%
13,Cc1ccc(OC(C)C(=O)Nc2ccc(C)c(S(=O)(=O)Nc3ccc(C)cc3C)c2)cc1 (configuration not stated),inconclusive: -30.4%
14,S=c1[nH]nc(CSCc2ccccc2Cl)n1-c1ccccc1,inconclusive: -32%
15,Cc1ccc(NC(=S)NCc2ccccn2)cc1,inconclusive: -42.2%
16,CN(C)C(=O)c1ccc(NC(=O)COc2ccc([N+](=O)[O-])cc2)cc1,inactive: -13.5%
17,O=c1c([N+](=O)[O-])c(NCCN2CCCCCC2)c2ccccc2n1-c1ccccc1,active: -97.7%
18,CCOc1ccc(Nc2c3ccccc3nc3ccccc23)cc1,inconclusive: -34%
19,CONC(=O)C1CCN(C(=O)OCc2ccccc2)CC1,inconclusive: -42.9%

row,SMILES,"max response, negative = inhibition"
1,COc1ccc(C(=O)Nc2cccc(C(C)=O)c2)cc1S(=O)(=O)N1CCOCC1,inconclusive: -41.4%
2,Cc1ccc(S(=O)(=O)NC2CCC(C(=O)O)CC2)cc1 (configuration not stated),inconclusive: -40.2%
3,COc1ccccc1C(=O)Nc1ccnn1C1CCN(Cc2ccn[nH]2)CC1,inactive: -14.7%
4,CCN1c2ccccc2NC2C1C(C(C)=O)C(=O)N2c1ccc(Cl)cc1 (configuration not stated),inconclusive: -47.8%
5,Cc1ccc(CN2CCN(CCCc3ccccc3)CC2CCO)cc1 (configuration not stated),inconclusive: -45.6%
6,O=C(c1cccnc1)N(Cc1ccccc1)c1ccccc1,inconclusive: -46.8%
7,COc1cnc(-c2ccccn2)nc1Sc1c(Cl)cccc1Cl,active: -64.6%
8,CN(C)CCN(C(=O)c1ccc2c(c1)CCCC2)c1nc2c(F)cccc2s1,inconclusive: -49.6%
9,COc1ccc(CN2CCSCC2)cc1O,inconclusive: -30.7%
10,Cc1cc(F)ccc1N1CCC(N2CCN(CCC(C)C)C(CCO)C2)CC1 (configuration not stated),inconclusive: -41.5%
11,CCC1CCCCN1CCCNC(=O)c1ccc2c(c1)N(Cc1c(F)cccc1Cl)C(=O)CS2 (configuration not stated),inconclusive: -39.7%
12,O=C1NC(=S)NC1=Cc1ccccc1O,inactive: 1.43%
13,CCn1c(SCC(=O)Nc2cc(F)ccc2C)nnc1-c1ccccc1O,inconclusive: -39%
14,CC(C)N(Cc1nc(COc2ccccc2)no1)Cc1nccn1C,inconclusive: -34.9%
15,Cn1c(=O)c2cc(S(=O)(=O)NCCC(=O)NCCc3ccc(Cl)cc3)ccc2n(C)c1=O,inconclusive: -41%
16,Cc1ccccc1N=C1NC(=O)/C(=C/c2cccnc2)S1,inconclusive: -45%
17,Cc1cccc(/C=C2\Sc3ccc(C(=O)N4CCOCC4)cc3N(C)C2=O)c1,inactive: -6.53%
18,Cc1c(C(=O)Nc2ccncc2)oc2ccccc12,inactive: 21.7%
19,COc1cccc(-c2cnc(C(O)c3cc(F)cc(Cl)c3)[nH]2)c1 (configuration not stated),inactive: 0%
